Measured values as given in patent US10597378B2 (priority 2017, dated 2020).
Some entries share one result that the patent states for a list of compounds.

Tested on: wild-type C57BL/6 (B6) mice
Experiment: Tail flick test (acute thermal pain)
Assay type: in vivo, mouse
Conditions: subcutaneous injection

Compound | time maximum antinociception was sustained after the injection
CN1CCc2ccccc2C1CNC(=O)c1ccc(Cl)c(Cl)c1 (centres unmarked) [Compound 67, 3,4-Dichloro-N-[(2-methyl-1,2,3,4-tetrahydro-1-isoquinolinyl)methyl]benzamide] | 30 to 60 min
CN1CC[C@]23c4c5ccc(O)c4O[C@H]2[C@@H](O)C=C[C@H]3[C@H]1C5.Cl [morphine, Morphine hydrochloride, reference compound] | 30 to 60 min
